Measurements from patent US12389911B2, “Benzimidazole compound or salt thereof, agricultural and horticultural insecticidal and acaricidal agent containing said compound, and method for using same” (NIHON NOHYAKU CO., LTD., priority 2019, dated 2025).
Some results were stated once for a whole list of compounds, not compound by compound.

Assays:
[1] = system: Haemonchus nematode (Haemonchus contortus) L-1 stage larvae; test: Impact evaluation test on larvae motility of Haemonchus nematode (96-well plate); format: in vivo; details: final concentration 50 ppm, twenty L-1 stage larvae, 4 days
[2] = system: Dog heartworm (Dirofilaria immitis) L-1 stage larvae; test: Impact evaluation test on larvae motility of dog heartworm (96-well plate); format: in vivo; details: final concentration 50 ppm, five hundred L-1 stage larvae, 3 days

Row | SMILES | corrected motility impediment rate, activity level [1] | corrected motility impediment rate, activity level [2]
1 | CCS(=O)(=O)n1c(-n2cc(Br)c(Br)n2)nc2ccccc21 [Compound 2-34] | A (the corrected motility impediment rate is 100%) | A (the corrected motility impediment rate is 100%)
2 | CCS(=O)(=O)n1c(-n2cc(C#Cc3ccc(C(F)(F)F)cc3)cn2)nc2ccccc21 [Compound 2-8] | A (the corrected motility impediment rate is 100%) | A (the corrected motility impediment rate is 100%)
3 | CCS(=O)(=O)n1c(-n2cnc(CCc3ccc(Cl)cc3Cl)c2)nc2ccccc21 [Compound 1-13] | A (the corrected motility impediment rate is 100%) | A (the corrected motility impediment rate is 100%)
4 | CCS(=O)(=O)n1c(-n2cnc(COc3ccc(OC(F)(F)F)cc3)c2)nc2ccccc21 [Compound 1-17] | A (the corrected motility impediment rate is 100%) | A (the corrected motility impediment rate is 100%)
5 | CCS(=O)(=O)n1c(-n2cc(CCc3ccc(C(F)(F)F)cc3)cn2)nc2ccccc21 [Compound 2-4] | A (the corrected motility impediment rate is 100%) | A (the corrected motility impediment rate is 100%)
6 | CCCCCCCCc1cnn(-c2nc3ccccc3n2S(=O)(=O)CC)c1 [Compound 2-2] | A (the corrected motility impediment rate is 100%) | A (the corrected motility impediment rate is 100%)
7 | CCS(=O)(=O)n1c(-n2cnc(C(F)(F)C(F)(F)C(F)(F)C(F)(F)C(F)(F)C(F)(F)F)c2)nc2ccccc21 [Compound 1-28] | A (the corrected motility impediment rate is 100%) | A (the corrected motility impediment rate is 100%)
